PubChem BioAssay AID1671195 – Yale University, 2021

Assay: 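Genes whose knockdown alters LDL uptake in liver cancer cells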 (primary screen)
Cells: human Huh7 hepatoma cells
Reagent: siRNA pool against human genes, 18 nM
Duration: about 2 to 2.5 days of knockdown, then 8 h LDL uptake
Challenge: DiI-labelled LDL at 30 µg/ml for 8 h, in lipoprotein-deficient serum medium
Measured: 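Fluorescent LDL signal imaged in cells, scaled to the plate median, robust z-score for each replicate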
Scale: robust z-score: higher = more LDL uptake after knockdown
Call rule: 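Active when two or more replicates show a robust z-score above 2 or below -2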
The whole screen tested about 22,000 reagents; below is a part drawn at random. About 1,510 of them (6.9%) count as active. 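Active includes knockdowns raising or lowering LDL uptake; positive z-scores mean more uptake, negative mean less.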

The first 3 records, ahead of the listing:
| gene | robust z-score, replicate 1 | robust z-score, replicate 2 | robust z-score, replicate 3 | Outcome |
| --- | --- | --- | --- | --- |
| ST8SIA5 (ST8 alpha-N-acetyl-neuraminide alpha-2,8-sialyltransferase 5) | 0.81 | 1.11 | 1.3 | inactive |
| PSG2 (pregnancy specific beta-1-glycoprotein 2) | 0.243 | 0.416 | 0.842 | inactive |
| GPBP1L1 (GC-rich promoter binding protein 1 like 1) | -0.876 | -1.64 | -1.35 | inactive |

Main list, from the start:
| gene | robust z-score, replicate 1 | robust z-score, replicate 2 | robust z-score, replicate 3 | Outcome |
| --- | --- | --- | --- | --- |
| ST8SIA5 (ST8 alpha-N-acetyl-neuraminide alpha-2,8-sialyltransferase 5) | 0.81 | 1.11 | 1.3 | inactive |
| PSG2 (pregnancy specific beta-1-glycoprotein 2) | 0.243 | 0.416 | 0.842 | inactive |
| GPBP1L1 (GC-rich promoter binding protein 1 like 1) | -0.876 | -1.64 | -1.35 | inactive |
| CAMLG (calcium modulating ligand) | -1.2 | -0.184 | -0.951 | inactive |
| MTBP (MDM2 binding protein) | -0.474 | -0.22 | -1.17 | inactive |
| PRSS33 (serine protease 33) | 0.000474 | 0.415 | 0.258 | inactive |
| PARP14 (poly(ADP-ribose) polymerase family member 14) | -0.036 | -0.274 | -0.417 | inactive |
| OR51S1 (olfactory receptor family 51 subfamily S member 1) | 0.449 | 0.369 | 0.572 | inactive |
| ZNF217 (zinc finger protein 217) | -0.647 | -0.0979 | -0.0261 | inactive |
| RBM48 (RNA binding motif protein 48) | -0.0375 | -0.617 | 0.437 | inactive |
| SRR (serine racemase) | 1.3 | 2.01 | 0.843 | inactive |
| LINC00298 (long intergenic non-protein coding RNA 298) | 0.926 | 0.94 | 0.956 | inactive |
| POLR3K (RNA polymerase III subunit K) | 2.17 | 1.57 | 1.09 | inactive |
| RNF31 (ring finger protein 31) | 0.442 | 0.137 | 0.268 | inactive |
| ALDH5A1 (aldehyde dehydrogenase 5 family member A1) | 1.52 | 1.7 | 1.34 | inactive |
| SOWAHA (sosondowah ankyrin repeat domain family member A) | -0.31 | 1.87 | 1.31 | inactive |
| CRAMP1 (cramped chromatin regulator 1) | -0.416 | -1.33 | -1.43 | inactive |
| ABHD12B (abhydrolase domain containing 12B) | 0.306 | -0.542 | 0.0442 | inactive |
| DEGS1 (delta 4-desaturase, sphingolipid 1) | -0.165 | -1.01 | -0.0123 | inactive |
| PITPNM2 (phosphatidylinositol transfer protein membrane associated 2) | 1.41 | 2.36 | 2.66 | active |
| FGFR3 (fibroblast growth factor receptor 3) | -0.0573 | -0.562 | -0.882 | inactive |
| SEMA5B (semaphorin 5B) | -0.616 | -0.768 | -1.35 | inactive |
| PDZD7 (PDZ domain containing 7) | -0.00432 | -0.29 | -0.362 | inactive |
| SPATA17 (spermatogenesis associated 17) | -1.21 | -0.109 | 0.00279 | inactive |
| CHST12 (carbohydrate sulfotransferase 12) | 1.21 | 0.758 | 0.729 | inactive |
| ALKBH5 (alkB homolog 5, RNA demethylase) | 0.112 | -0.882 | 0.977 | inactive |
| PDIA2 (protein disulfide isomerase family A member 2) | 1.58 | 1.23 | 1.96 | inactive |
| CBARP (CACN subunit beta associated regulatory protein) | 0.53 | 1.04 | 1.44 | inactive |
| ZFAND1 (zinc finger AN1-type containing 1) | 2.73 | 2.59 | 2.15 | active |
| CST8 (cystatin 8) | -0.896 | -1.1 | -1.25 | inactive |
| TRAM1L1 (translocation associated membrane protein 1 like 1) | -0.114 | 0.00893 | 0.161 | inactive |
| LGALS7 (galectin 7) | -2.03 | -1.39 | -1.79 | inactive |
| LOC389252 (retired record) | -0.157 | -0.383 | -0.0233 | inactive |
| CENPM (centromere protein M) | 0.0227 | -0.425 | -0.227 | inactive |
| MMADHC (metabolism of cobalamin associated D) | 0.38 | 0.367 | -1.62 | inactive |
| LOC441770 (retired record) | -0.289 | 0.148 | 0.368 | inactive |
| SLC16A4 | 1.28 | 1.62 | 1.71 | inactive |
| ZNF440 (zinc finger protein 440) | 0.631 | 0.648 | 0.213 | inactive |
| DHX8 (DEAH-box helicase 8) | -0.947 | -1 | -1.12 | inactive |
| CAPN9 (calpain 9) | -1.84 | -1.17 | -1.26 | inactive |
| LOC441117 (retired record) | 0.234 | -0.0878 | 0.199 | inactive |
| SIL1 (SIL1 nucleotide exchange factor) | -0.865 | -0.667 | -0.988 | inactive |
| DYNC1I1 (dynein cytoplasmic 1 intermediate chain 1) | -1.02 | -0.724 | -1.05 | inactive |
| OSBP (oxysterol binding protein) | -1.49 | -0.697 | -0.81 | inactive |
| ILKAP (ILK associated serine/threonine phosphatase) | -1.71 | -1.92 | -1.61 | inactive |
| APCDD1L (APC down-regulated 1 like) | 2.73 | 2.9 | 2.17 | active |
